Laboratory results from paper PMC3641332.
These are yes or no findings as the source states them, for the method shown. In cells and extracts the contact can be indirect. Some results given as binding are weak or reduced against the parent protein; the word gives no strength. Sequences can lack the tags named with a protein.

Sequences of proteins named here, by UniProt entry; tags and fusion partners are left off. A change or cut given only in a name is not applied to a line headed by its entry.
UniProt Q09472: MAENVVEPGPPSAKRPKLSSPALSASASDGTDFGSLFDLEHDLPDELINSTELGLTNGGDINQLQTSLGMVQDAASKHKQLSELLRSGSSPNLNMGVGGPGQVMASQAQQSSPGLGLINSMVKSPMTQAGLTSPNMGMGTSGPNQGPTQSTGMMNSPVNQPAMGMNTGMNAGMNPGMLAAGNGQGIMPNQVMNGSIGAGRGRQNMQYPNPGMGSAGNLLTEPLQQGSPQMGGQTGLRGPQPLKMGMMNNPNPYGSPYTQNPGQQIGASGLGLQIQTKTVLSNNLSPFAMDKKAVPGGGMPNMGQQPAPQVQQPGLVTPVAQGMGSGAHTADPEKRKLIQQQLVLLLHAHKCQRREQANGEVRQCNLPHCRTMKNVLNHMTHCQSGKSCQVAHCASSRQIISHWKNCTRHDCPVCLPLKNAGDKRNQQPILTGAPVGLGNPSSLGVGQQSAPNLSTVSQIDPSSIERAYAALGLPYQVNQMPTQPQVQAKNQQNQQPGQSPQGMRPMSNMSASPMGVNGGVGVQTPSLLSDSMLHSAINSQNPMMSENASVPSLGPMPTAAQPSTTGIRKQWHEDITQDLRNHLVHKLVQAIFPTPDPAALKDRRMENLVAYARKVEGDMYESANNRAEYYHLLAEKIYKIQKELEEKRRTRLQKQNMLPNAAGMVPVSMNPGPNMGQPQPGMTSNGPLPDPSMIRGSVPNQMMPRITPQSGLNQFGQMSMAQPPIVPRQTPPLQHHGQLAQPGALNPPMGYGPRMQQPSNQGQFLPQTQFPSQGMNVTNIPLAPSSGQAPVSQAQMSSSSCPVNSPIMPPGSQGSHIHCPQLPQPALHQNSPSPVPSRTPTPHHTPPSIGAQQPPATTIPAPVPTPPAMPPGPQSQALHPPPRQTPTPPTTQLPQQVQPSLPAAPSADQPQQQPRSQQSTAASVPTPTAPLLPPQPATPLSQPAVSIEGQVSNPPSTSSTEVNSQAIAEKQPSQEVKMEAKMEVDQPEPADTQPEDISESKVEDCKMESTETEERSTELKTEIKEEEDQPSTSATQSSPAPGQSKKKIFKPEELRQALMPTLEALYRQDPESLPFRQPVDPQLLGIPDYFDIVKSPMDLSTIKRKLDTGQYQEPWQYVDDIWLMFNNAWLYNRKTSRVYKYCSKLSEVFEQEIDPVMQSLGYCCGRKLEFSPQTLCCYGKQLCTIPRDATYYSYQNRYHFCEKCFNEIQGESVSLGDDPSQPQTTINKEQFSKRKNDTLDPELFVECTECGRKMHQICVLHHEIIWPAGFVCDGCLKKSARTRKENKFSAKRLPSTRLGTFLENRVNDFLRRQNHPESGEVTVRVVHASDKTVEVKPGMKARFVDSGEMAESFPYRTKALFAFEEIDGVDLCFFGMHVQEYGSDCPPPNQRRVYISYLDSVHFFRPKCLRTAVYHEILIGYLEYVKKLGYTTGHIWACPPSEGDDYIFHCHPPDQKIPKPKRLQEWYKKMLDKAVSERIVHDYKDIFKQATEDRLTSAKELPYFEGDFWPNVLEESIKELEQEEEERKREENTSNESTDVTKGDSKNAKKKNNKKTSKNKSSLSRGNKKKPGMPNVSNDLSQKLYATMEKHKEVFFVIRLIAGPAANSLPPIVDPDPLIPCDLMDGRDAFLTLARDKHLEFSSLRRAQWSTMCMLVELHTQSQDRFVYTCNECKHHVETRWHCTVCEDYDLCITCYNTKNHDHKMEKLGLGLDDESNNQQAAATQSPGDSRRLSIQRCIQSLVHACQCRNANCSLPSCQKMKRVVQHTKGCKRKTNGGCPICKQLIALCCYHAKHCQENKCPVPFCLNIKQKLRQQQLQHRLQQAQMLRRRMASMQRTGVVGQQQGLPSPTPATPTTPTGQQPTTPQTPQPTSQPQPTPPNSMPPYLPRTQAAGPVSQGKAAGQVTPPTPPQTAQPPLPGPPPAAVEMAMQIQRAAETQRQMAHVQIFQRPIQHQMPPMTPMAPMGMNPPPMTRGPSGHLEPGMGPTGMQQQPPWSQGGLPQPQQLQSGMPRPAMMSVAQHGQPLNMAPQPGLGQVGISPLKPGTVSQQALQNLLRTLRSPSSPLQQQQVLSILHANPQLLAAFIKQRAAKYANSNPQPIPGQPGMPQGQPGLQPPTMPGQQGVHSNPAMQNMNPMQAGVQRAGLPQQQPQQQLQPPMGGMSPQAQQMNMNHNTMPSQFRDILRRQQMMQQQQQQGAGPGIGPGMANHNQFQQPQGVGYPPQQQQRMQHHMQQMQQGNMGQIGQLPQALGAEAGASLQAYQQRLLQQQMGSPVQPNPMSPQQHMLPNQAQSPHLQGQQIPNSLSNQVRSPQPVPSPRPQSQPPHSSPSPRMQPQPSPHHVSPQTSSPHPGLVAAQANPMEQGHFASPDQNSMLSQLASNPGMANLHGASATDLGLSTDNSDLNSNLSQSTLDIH

T1: FK506 binding protein 51 (FKBP51), Flag-tagged (UniProt Q13451)
T1 sequence: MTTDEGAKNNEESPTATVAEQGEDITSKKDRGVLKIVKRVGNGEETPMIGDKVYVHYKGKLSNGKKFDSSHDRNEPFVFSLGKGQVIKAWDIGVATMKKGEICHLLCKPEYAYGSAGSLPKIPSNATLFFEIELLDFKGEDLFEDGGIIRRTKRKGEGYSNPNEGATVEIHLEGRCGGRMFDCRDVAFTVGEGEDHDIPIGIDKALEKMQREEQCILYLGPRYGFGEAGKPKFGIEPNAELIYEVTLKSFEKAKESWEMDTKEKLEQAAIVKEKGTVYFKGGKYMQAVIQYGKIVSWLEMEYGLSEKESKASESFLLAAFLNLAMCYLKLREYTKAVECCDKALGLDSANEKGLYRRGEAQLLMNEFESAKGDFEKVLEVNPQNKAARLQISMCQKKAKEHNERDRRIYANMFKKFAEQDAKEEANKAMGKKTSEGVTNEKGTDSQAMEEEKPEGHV

B1: FK506 binding protein 51 (FKBP51), Flag-tagged (protein, UniProt Q13451 1-457)
chain: T1 sequence

Key:
[1] = molecular target: T1, FK506 binding protein 51 (FKBP51), Flag-tagged; experiment: co-IP; 500 ug total lysate (modified RIPA) of SAN melanoma cells transfected with FKBP51/Flag; precipitated with 3 ug anti-Flag (M2) overnight at 4°C, protein A/G plus-agarose, washed in RIPA; western blot with anti-p300
[2] = molecular target: E1A binding protein 300 (p300) (human (endogenous in SAN melanoma cells)) (UniProt Q09472); experiment: co-IP; 500 ug total lysate (modified RIPA) of SAN melanoma cells transfected with FKBP51/Flag; precipitated with 3 ug anti-KAT3B/p300 overnight at 4°C, protein A/G plus-agarose, washed in RIPA; western blot with anti-FKBP51

Row | Molecule | binding [1] | binding [2]
1 | E1A binding protein 300 (p300) (from UniProt Q09472 1-2414) | binds | 
2 | B1 |  | binds
